Reference: patent US20080227813A1, “Pharmaceutical compositions and methods for treating diseases associated with neurodegeneration” (priority 2006, published 2008)

Test system: patients with ALS
Conditions: patients receiving riluzole only
Description: A clinical trial was conducted to assess the safety and tolerability of Compound I, at three dosages (75, 150, and 300 mg/day) as compared with placebo over 12 weeks of treatment in 80 patients with ALS. It was also conducted to determine the pharmacokinetic characterization of Compound I in serum, as well as cerebrospinal fluid (CSF) penetration, in a subset of the 80 patients participating in the study. This information was correlated with safety measures.
Methodology: This study was a multicenter, double-blind, placebo-controlled study of outpatients with ALS. Eighty subjects at 8-10 centers were enrolled. Subjects received placebo, 25 mg tid, 50 mg tid or 100 mg tid Compound I daily. All 80 subjects received treatment to determine safety and tolerability after 12 weeks of daily treatment. Follow-up visits occurred at 2, 4, 6, 8, 10, 12, and 16 weeks. A subset of participants were admitted to the General Clinical Research Center (GCRC), clinical research center or other department for serum pharmacokinetic studies at Baseline and Week 4, with additional trough serum sampling at Weeks 2, 8, and 12. Cerebrospinal fluid (CSF) penetration was only be evaluated at Week 4.

Nc1nc2ccc(OC(F)(F)F)cc2s1 [riluzole, Riluzole, reference compound]
effect on average ALSFRS-R score: no effect
